# Reference: patent US20230279052 (published 2023)
# Experiment: general procedure: solution-phase peptide synthesis; EDCI·HCl/HOBt·H2O/NMM
Substance,final HPLC purity (late stage modification step) [%],"cyclisation yield (cyclisation step, overall) [%]",final HPLC purity (whole synthesis) [%]
(2S)-2-((2S)-3-(adamantan-1-yl)-2-((R)-2-((S)-2-amino-3-phenylpropanamido)-5-guanidinopentanamido)propanamido)-6-aminohexanamide,99,,
"(10S,13S,16R)-13-((adamantan-1-yl)methyl)-16-((S)-2-amino-3-phenylpropanamido)-2-imino-4,12,15-trioxo-1,3,5,11,14-pentaazacyclononadecane-10-carboxamide",,9,98.82
